Data taken from patent EP4831293A1, “BIOSYNTHETIC GENE CLUSTER FOR POLYENE MACROLIDE NATURAL PRODUCT MANDIMYCIN, AND NATURAL PRODUCT AND USE THEREOF” (dated 2026).
The match of structure and compound is tentative.

Experiments:
[1] = Isothermal titration calorimetry (ITC); settings: 25°C, 5.0 mM HEPES pH 7.4
[2] = Isothermal titration calorimetry (ITC), phospholipids as a group; settings: 25°C, 5.0 mM HEPES pH 7.4
UV-vis binding curves = settings: UV-Vis 310-400 nm, room temperature, 30 min
HK-2 cells = experiment: Cytotoxicity, MTT assay
HepG2 cells = experiment: Cytotoxicity, MTT assay; settings: 48 h
PANC-1 cells = experiment: Cytotoxicity, MTT assay
SK-Hep-1 cells = experiment: Cytotoxicity, MTT assay
blood cells = experiment: Hemolytic activity; settings: 100 µM, 37°C, 3 h, sheep blood cells
[3] = In vivo pharmacokinetic study; settings: rats, subcutaneous injection, 25 mg/kg
[4] = In vivo nephrotoxicity evaluation (biomarkers, histopathology); settings: mice
[5] = Acute toxicity observed in the mouse infection experiments
[6] = Stability under acidic conditions (statement); settings: prone to dehydration and loss of side-chain glycosyl groups

CC1C=CCCC=CC=CC=CC=CC=CC(OC2OC(C)C(O)C(N)C2O)CC2OC(O)(CC(O)C(O)CCC(O)CC(=O)CC(O)CC(=O)OC(C)C(C)C1O)CC(O)C2C(=O)O (stereo not drawn)
Kd ([1]; cholesterol): 28.6 µM | Kd ([1]; ergosterol): 25.9 µM | binding to phospholipid components (ITC) [2]: no binding curves | binding to phospholipid molecules (UV absorbance change) (UV-vis binding curves): do not bind | binding to sterol molecules (UV absorbance change) (UV-vis binding curves; cholesterol and ergosterol): binds to sterol molecules

COC1CC(OC2C(O)CC(OC3C(C)C=CCCC=CC=CC=CC=CC=CC(OC4OC(C)C(O)C(N)C4O)CC4OC(O)(CC(O)C(O)CCC(O)CC(=O)CC(O)CC(=O)OC(C)C3C)CC(O)C4C(=O)O)OC2C)OC(C)C1O (stereo not drawn)
IC50 (HK-2 cells): 88.7 µM | IC50 (HepG2 cells): 57.6 µM | IC50 (PANC-1 cells): 48.3 µM | IC50 (SK-Hep-1 cells): 76.7 µM | hemolytic activity (blood cells): no hemolytic activity | area under the curve (AUC0-∞) [3]: 541,692.11 h•ng/mL | half-life [3]: 3.84 h | maximum concentration (Cmax) [3]: 55,168.20 ng/mL | nephrotoxicity-related indicators (KIM-1, TIMP-1, NGAL, OPN) ([4]; s.c. 1, 5, 10 or 20 mg/kg once daily): comparable to those of the placebo group | histopathological scoring of kidney ([4]; s.c. once daily, H&E staining): virtually no renal injury | acute toxicity ([5]; 20 mg/kg, both mouse infection models): no acute toxicity was observed | acute toxicity ([5]; all in vivo animal experiments at different doses): No acute toxicity was observed | Kd ([1]; cardiolipin): 63.6 µM | Kd ([1]; ergosterol): does not bind | Kd ([1]; phosphatidylcholine): 36.8 µM | Kd ([1]; phosphatidylglycerol): 28.2 µM | Kd ([1]; phosphatidylinositol): 21.9 µM | Kd ([1]; sphingomyelin (table: Sphingolipid)): 50 µM | stability under acidic conditions [6]: unstable under acidic conditions
